{"source": "PubChem BioAssay AID1508587 (Peter MacCallum Cancer Centre, 2020)", "assay": "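Knockdowns that add to vemurafenib's cut in melanoma glycolysis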 (follow-up of hits)", "system": "human WM266.4 melanoma cells with a BRAF V600 mutation", "knock-down reagent": "single siRNA against human genes, 25 nM", "timing": "96 h", "conditions": "vemurafenib 300 nM (about IC25), given 48 h after transfection for 48 h", "detection": "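Medium lactate read by absorbance over DAPI-counted nuclei; ratio with versus without vemurafenib, set against non-targeting siRNA, averaged over 2 replicates; cell number also recorded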", "reading the numbers": "lactate per cell, drug vs no drug: higher = less drug-induced drop in lactate per cell; lactate per cell with vemurafenib: higher = more lactate per cell under drug", "hit rule": "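a duplex is active when its lactate-per-cell ratio with versus without drug falls under 0.55, i.e. 2 SD below non-targeting; a gene is confirmed if 2 or more of 4 duplexes pass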", "note": "Shown is one part, drawn at random, of about 1,600 reagents. Of all reagents, 623 (39%) got an active call. 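Calls are for each duplex; lactate ratios contain extreme outliers.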 Entries without a mark were called inactive. Reagents against one gene are numbered here. Not all columns of the deposit are shown."}
{"gene":"FAM204A","siRNA no.":1,"lactate per cell, drug vs no drug":"0.44 (active)","lactate per cell with vemurafenib":1.44}
{"gene":"FAM204A","siRNA no.":2,"lactate per cell, drug vs no drug":0.59,"lactate per cell with vemurafenib":1.44}
{"gene":"FAM204A","siRNA no.":3,"lactate per cell, drug vs no drug":0.66,"lactate per cell with vemurafenib":1.36}
{"gene":"FAM204A","siRNA no.":4,"lactate per cell, drug vs no drug":0.68,"lactate per cell with vemurafenib":1.42}
{"gene":"FAR1","siRNA no.":1,"lactate per cell, drug vs no drug":"0.4 (active)","lactate per cell with vemurafenib":0.56}
{"gene":"FAR1","siRNA no.":2,"lactate per cell, drug vs no drug":"0.5 (active)","lactate per cell with vemurafenib":0.69}
{"gene":"FAR1","siRNA no.":3,"lactate per cell, drug vs no drug":0.68,"lactate per cell with vemurafenib":1.35}
{"gene":"FAR1","siRNA no.":4,"lactate per cell, drug vs no drug":0.68,"lactate per cell with vemurafenib":2.02}
{"gene":"THSD1","siRNA no.":1,"lactate per cell, drug vs no drug":"0.45 (active)","lactate per cell with vemurafenib":1.17}
{"gene":"THSD1","siRNA no.":2,"lactate per cell, drug vs no drug":0.6,"lactate per cell with vemurafenib":1.46}
{"gene":"THSD1","siRNA no.":3,"lactate per cell, drug vs no drug":0.57,"lactate per cell with vemurafenib":0.88}
{"gene":"THSD1","siRNA no.":4,"lactate per cell, drug vs no drug":"0.48 (active)","lactate per cell with vemurafenib":1.44}
